Tests used:
[1] = system: deacetylase activity in total protein extracts of T. gondii; test: Deacetylase activity in total protein extracts of T. gondii; assay type: biochemical; conditions: 125 nM
[2] = system: Leishmania infantum luciferase expressing strain (MHOM/MA/ITMAP269); test: microbe, parasite or virus in culture; assay type: cell-based; conditions: antiparasitic activity, read-out: L. infantum IC50
Procedure: Leishmanicidal activity was determined according to a previously published protocol that used Leishmania infantum luciferase expressing strain (MHOM/MA/ITMAP269) (Sereno D & Lemesre J L, Antimicrob Agents Chemother 1997, 41(5): 972-976).
Antiparasitic activity of a compound is represented by ICo50, which is calculated with Prism software (Prism4 for MacOSX Version 5.0b, December 2008). The cytoxicity of a compound against the host cells of L. infantum and T. gondii, such as THP-1 or HFF cells, was determined with a MTT assay, according to previously described protocol (Sereno et al., Antimicrob Agents Chemother. 2001, 45(4):1168-73). THP-1 is derived from the peripheral blood ofa human with acute monocytic leukemia.

[3] = system: HDAC activity from HELA nuclear extract; conditions: read-out: HDAC inhibitory activity of SAHA (literature); Jiao et al., Eur. J. Med. Chem. 2009; cited from earlier work

O=C(CCCCCCC(=O)Nc1ccccc1)NO [SAHA, suberoylanilide hydroxamic acid, reference compound]
inhibition of T. gondii deacetylase activity [1]: 22%
IC50 [2]: > 100 µM
IC50 [3]: 1.3 µM
